# According to US20030095937A1, “Method for stimulating hair growth by administering vitamin D analogs” (priority 2001, published 2003):
# Some entries share one result that the patent states for a list of compounds. Some ranges recur; such a range may be that of the whole group of compounds.
# System: BNX nu/nu mice
# Test: Hair growth scoring in nude mice
# Format: in vivo
# Details: scale 1-10
# Method: In the experiments described herein, BNX nu/nu male and female mice at 8 weeks of age were used. In one series of experiments, a total of 3 males were allotted equally within each of the groups consisting of 6 different vitamin D3 compounds, and a control untreated group. In an addition, three male and 3 female mice received EB1089. All of the analogs were injected intraperitoneally (i.p.), three times a week in a volume of 200 μl phosphate buffered saline.
# Vitamin D3 analogs were dissolved in absolute ethanol prior to determining the molar concentration as measured by UV absorbance using their molar extinction coefficient at […]. All the analogs were stored at −20° C. in absolute ethanol as stock solutions of 10^−3 mol/liter. The last dilution was made in phosphate buffered saline, prior to administration into mice. Vitamin D3 compounds were always protected from light. The inventors chose the highest dose that would not cause hypercalcemia. These doses, identified in previous experiments, are summarized below in Table 1.
# The inventors developed the following scale for measuring hair growth in BNX mice:
# The inventors examined hair growth of nude mice as the mice received diluant (control mice), 1.25(OH)2D3 or one of 6 vitamin D3 analogs. Each group contained three mice. The effect of Vitamin D3 analogs on hair growth of nude mice was systematically assessed on each mouse by giving them scores from a scale of 1-10 (Table1), 3 times a week. The score for hair growth takes in to account the thickness and pigmentation, as both of these characteristics correlate indirectly with induction of anagen, the growth phase of the hair cycle. For example, a score of […] represents skin thickening with heavy pigmentation; this reflects the formation of the hair shaft prior to the protrusion of hair above the skin surface.
row,Structure (SMILES),score of second cycle of hair growth
1,C[C@H](CCC(=O)C(C)(C)O)C1=CCC2/C(=C/C=C3C[C@@H](O)C[C@H](O)C3)CCC[C@]12C (stereo partly drawn) [Ro26-9114],7-8
2,C[C@]12CCC/C(=C\C=C3C[C@@H](O)C[C@H](O)C3)C1CC[C@@H]2C1(C/C=C/C(O)(C(F)(F)F)C(F)(F)F)CC1 (stereo partly drawn) [Ro27-0574],7-8
3,C=C1/C(=C\C=C2/CCC[C@]3(C)[C@@H]([C@H](C)/C=C/C=C/C(O)(CC)CC)CC[C@@H]23)C[C@@H](O)C[C@@H]1O [EB1089],7-8
